Values quoted from earlier work, collected in patent publication US20220176084A1, “MEDICAL DEVICE WITH DRUG-ELUTING COATING ON MODIFIED DEVICE SURFACE” (Bard Peripheral Vascular, Inc., priority 2019, published 2022).
Some entries share one result that the patent states for a list of compounds.

Conditions: low-solubility amino acid; 4% (40 mg/ml); cited from earlier work

**Q.** With `N[C@@H](Cc1ccccc1)C(=O)O` [phenylalanine] as the compound, how does the “solubility in unbuffered water” value read?
**A.** Its value is “less than 4%”.

**Q.** For `CC(C)C[C@H](N)C(=O)O` [leucine], which “solubility in unbuffered water” value is on record?
**A.** The value was “less than 4%”.

**Q.** For `N[C@@H](Cc1c[nH]c2ccccc12)C(=O)O` [tryptophan], which “solubility in unbuffered water” value is on record?
**A.** Its value is “less than 4%”.
